The other results are listed elsewhere or left out.
B1: il10ra_site1_normal_mot_HHH_b2_07144_000000289_0001_1_18_H_._HHH_b1_07199_0001_0000100012_0000001_0 (protein)
chain: SSSSNEENEELYELSRRLAELIRRGNEEEARRLLEEAKELAEEANNFIARFVLRLLEEELSSSSS
B2: il10ra_site1_normal_mot_5fda0655e6834f3f331eaa9f580e88ed_0001_af2_000000239_0001_36_50_H_._a6da520ff4a02840130205282d0b8d49_0001_0001_0000100004_0000001_0_af2pr … (protein)
chain: SREYRILDAAIEAAGGDEERVEQLLEAYLEISKDPVVASVLKKLREAKAKGIPAKELLEELKAEN
B3: il10ra_site1_sap_11_mot_e1dd4851c59bc1cdde016f988f6856bd_0001_1_000000200_0001_16_31_H_._HEEHE_0643_0001_0000200004_0000002_0_0001 (protein)
chain: SSSSDEEEEESEELLKELEKLLREGDQERFIKLAAEIVRFAYEVNDEELLQAVWRLVEEFASSSS
B4: il10ra_site1_normal_mot_HHH_b1_03314_af2_000000278_0001_42_55_H_._HHH_b1_08766_0001_0000100003_0000002_0 (protein)
chain: SSSSSSSNVQFLARQAVRVIRLLNNEELLREAEELLEELEEKNDPRLLTRIHELAQEAYSSSSSS
B5: il10ra_site1_normal_mot_HHH_b1_04940_000000219_0001_1_18_H_._HHH_b2_00218_0001_0000100003_0000001_0 (protein)
chain: SSSSSEEERYLELAVRFLEQLLEQGDEEAARSMLRVVKDLAERLGDEEIKEELEEIEKELSSSSS
B6: il10ra_site1_normal_mot_HHH_b2_03220_af2_000000223_0001_23_40_H_._HHH_b1_05342_0001_0000500033_0000002_0_af2pred_0001 (protein)
chain: SSSSSSDHREVIRLLREALEIDDPEEARELVEEALELAQEAGNEELALIAEFLLRALSSSSSSSS
B7: il10ra_site1_normal_mot_HHH_b1_07219_af2_000000236_0001_1_17_H_._HHH_b1_02823_0001_0000200019_0000001_0 (protein)
chain: SSSDLEEKVKEILEELEELLERGDTEEALHLVWRALKEVAERGNKELFRLLRKVAQEILQLSSSS
B8: il10ra_site1_sap_17_mot_HHH_b1_08742_000000038_0001_1_20_H_._HHH_b1_03475_0001_0000200017_0000001_0_0001 (protein)
chain: SSSSSQEEQHARAVLWFARAALRDGDPHAAKYMLEYAAKLAEELGDEELLEEIERLLEEVNSSSS
B9: il10ra_site1_sap_21_mot_39a7b8d0c4c3fc04bafbda6ce6101d3a_0001_1_af2_000000014_0001_34_48_H_._HHH_b2_05481_0001_0000300014_0000002_0_0001 (protein)
chain: SSSSNEREAVEEVWELIRRALHIDDKEEAQEVVEEALELAEEINSRVMRQVIRWWLKELGSSSSS
B10: il10ra_site1_sap_24_mot_HHH_b2_06979_000000158_0001_42_57_H_._HHH_b1_01541_af2_0001_0000300025_0000002_0_0001_af2pred_dldesign_0_af2pred (protein)
chain: SSSDPEREALERALRYARWLLEQGAPELARRTLENALEWAERAGDPEFVKEIRAELARVEESSSS
B11: il10ra_site1_sap_19_mot_HHH_b1_03333_000000091_0001_1_17_H_._HHH_b2_06582_af2_0001_0000400013_0000001_0_0001 (protein)
chain: SSSSSAEYLVKQALKAAKRLAEQGDPEEAEKALRIAEHLAEEANDPELQRLVEEVQEEIRNSSSS
B12: il10ra_site1_sap_21_mot_HHH_b1_06804_000000054_0001_40_54_H_._HHH_b2_06339_0001_0000400038_0000001_1_0001 (protein)
chain: SSSSSDEHEEEVKELLEEAKEIDDEHERAQVLFEALRIAYEAQDKELLREVDEVAIKLYWSSSSS
B13: il10ra_site1_normal_mot_1f0bf248c09923a0581b66a675a8b92c_0001_af2_000000188_0001_52_65_H_._a6da520ff4a02840130205282d0b8d49_0001_0001_0000400022_0000001_1_af2pr … (protein)
chain: SDEVIALEAAIKAAGGDPRQVELILEAALRLLGDPAVEKVLRLLREALERGIPPEELLEELREEG
B14: il10ra_site1_sap_16_mot_HHH_b2_06857_af2_000000179_0001_42_54_H_._HHH_b1_08410_0001_0000100001_0000003_0_0001 (protein)
chain: SSSSSDAERQVRILLWAAKRIEDPHLRRVVLRLARENAEWQNDPEAEKLVEEVEEELEEKSSSSS
B15: il10ra_site1_sap_13_mot_HHH_b1_03273_000000263_0001_1_14_H_._HHH_b2_04095_af2_0001_0000200015_0000001_0_0001_af2pred_0001 (protein)
chain: SSSSDEEEFQERVEELLEEAKKISDRHEVTYLMIRAFALANQANDPELEKLVKEVAQELSSSSSS
B16: il10ra_site1_sap_21_mot_0eddeacbb14b769e73e254714f31e2f9_0001_af2_000000203_0001_37_51_H_._HHH_b1_06326_0001_0000400030_0000001_0_0001_af2pred_dldesign_0_af2pre … (protein)
chain: SPREEALREVAKRAGIPEAVFEYMREQAEKDAGGDPEATLEALARRLSLLAPPELQPALAAVLAA
B17: il10ra_site1_sap_27_mot_HHH_b2_02354_af2_000000157_0001_40_56_H_._HHH_b1_02176_0001_0000100006_0000002_0_0001 (protein)
chain: SSSSDEEERLKELLEELEELLEEGDDERFLKVAQEILRLAFQLGDEEALQAVWRLAKRSRSSSSS
B18: il10ra_site1_normal_mot_HHH_b2_05797_000000294_0001_1_19_H_._HHH_b1_02457_0001_0000300027_0000001_0_af2pred_0001 (protein)
chain: SSSSDEEVRELIEILEELREHVSPEEEELIEATLRVAKVLLEAGDPEAARFLLKAAIEAIRSSSS
B19: il10ra_site1_normal_mot_HHH_b2_02497_000000220_0001_1_20_H_._d4a0d7e14d3257bbacf2cba0c18c7893_0001_1_af2_0001_0000100001_0000001_0 (protein)
chain: DEDYELLRIIIELARDPELQRLLQLLIQFWFRGDPRVRELLEELEELLEQGDPEEAAELLKEFLK
B20: il10ra_site1_normal_mot_HHH_b2_08143_000000031_0001_38_55_H_._HHH_b2_07298_0001_0000200010_0000002_0_af2pred_0001 (protein)
chain: SSSSSSEEEVHARAALWFARLIEDPEAKRILLEIAEEFAEKAGDEELLEEIEEELEKVGSSSSSS
B21: il10ra_site1_sap_14_mot_HHH_b2_02375_000000081_0001_1_20_H_._HHH_b2_02047_0001_0000200016_0000002_0_0001 (protein)
chain: SSSSSSEEEALREAYELIERAFEIEDEREVRELLEEALELAEEANNWALQFAIRHALRSLSSSSS
B22: il10ra_site1_normal_mot_HHH_b1_00999_000000080_0001_41_55_H_._HHH_b2_03336_0001_0000100008_0000002_0 (protein)
chain: SSSSSSDVEELLEEARELAEEGDPQWARVLAEAVRHAYENGDEELLREIWELVKEIGHSSSSSSS
B23: il10ra_site1_sap_13_mot_HHH_b2_02053_af2_000000006_0001_3_19_H_._HHH_b1_06660_af2_0001_0000100004_0000001_0_0001 (protein)
chain: SLEELLRELLEELGVPPERIRLLELAFRRQRKQGSPPEDVLRALLFLLHAAGDPAREAVRELLER
B24: il10ra_site1_sap_15_mot_HHH_b2_07145_000000158_0001_24_40_H_._HHH_b2_04542_0001_0000100009_0000001_1_0001_af2pred_0001 (protein)
chain: SSSSDVEERVEELAEEVRELLENGNPEEALQVIREIVRLAAEHNDEEALRIARELLKLVFSSSSS
B25: il10ra_site1_normal_mot_HHH_b2_00033_000000036_0001_41_54_H_._HHH_b2_02401_0001_0000100019_0000002_0 (protein)
chain: SSSSSDEEEVKELIREAEELRERGNPEEAMRVLIEALQLAHRSGNEELFQELWEFAKKLASSSSS
B26: il10ra_site1_normal_mot_HHH_b2_03651_000000190_0001_21_37_H_._HHH_b2_07896_0001_0000100001_0000002_0_af2pred_0001 (protein)
chain: SSSSSDEEYEEEVEELLEEAKKIEDEHEASRVLLEALRLAYELGNPELLQLVFEVIRRVISSSSS
B27: il10ra_site1_sap_20_mot_HHH_b1_07256_000000044_0001_1_17_H_._HHH_b2_06732_af2_0001_0000300014_0000001_0_0001 (protein)
chain: SSSSDAYEAVERLIEEAVEAIRNRDDELLERILRELEELAKEKGNQIIEFIVELLERAFEGSSSS
B28: il10ra_site1_normal_mot_HHH_b1_03260_000000175_0001_42_57_H_._HHH_b1_05644_af2_0001_0000300015_0000001_0_af2pred_0001 (protein)
chain: SSSSSEDEERIELTLRFARFLLENGDPEAARFLVEAAIELAKRNNNPELLEEAEKLEEEINSSSS
B29: il10ra_site1_sap_16_mot_HHH_b1_05704_af2_000000048_0001_1_18_H_._HHH_b1_07589_0001_0000200021_0000001_0_0001 (protein)
chain: SSSSTDESYRLAKEVIEKAIELIRNGNPEEARELLEEALEELEKLGDQIAVMQLRHLLELASSSS
B30: il10ra_site1_sap_18_mot_HHH_b2_07044_000000036_0001_1_16_H_._HHH_b2_02374_0001_0000200026_0000002_0_0001_af2pred_0001 (protein)
chain: SSSSDDVERAIEILIRAAKLAKKQGNEEVARLAIRFALALAKAANDEELLEELERILEELRSSSS
B31: il10ra_site1_normal_mot_HHH_b2_02337_000000026_0001_38_52_H_._HHH_b2_07051_0001_0000100002_0000001_0 (protein)
chain: SSSSSEEEELEEILEEIKRLYKEGDEERVLQLLQRLARLAFRLNDPEVLRELWELVQKIASSSSS
B32: il10ra_site1_normal_mot_HHH_b2_01447_af2_000000258_0001_1_20_H_._HHH_b1_01230_af2_0001_0000100002_0000002_0_af2pred_0001 (protein)
chain: SSSSSAEEVRRLIREAIELAREGDEEEAEEVLEEAQRLAEELNNPLLEWIIRSALEQLRRSSSSS
B33: il10ra_site1_sap_23_mot_HHH_b2_03708_000000000_0001_1_18_H_._HHH_b1_08343_0001_0000300038_0000001_0_0001 (protein)
chain: SSSSDLEKEIFHLLIEAYHLLQRGDEEEARELLEEAKELAEELNDPALLRAVEVLLAKLDSSSSS
B34: il10ra_site1_sap_16_mot_HHH_b1_00682_000000235_0001_1_20_H_._HHH_b1_05074_0001_0000100010_0000001_0_0001 (protein)
chain: SSSSDEEREELEELIRELEELLKNGDPERALRVIQRAIRLAFQSNDPELLRELWEVIKRHFSSSS
B35: il10ra_site1_normal_mot_HHH_b2_07144_000000289_0001_1_18_H_._HHH_b1_07702_0001_0000300014_0000001_1_af2pred_0001 (protein)
chain: SSSSSSSNAYELSREILEVLYEGDEEEAERLLKELEELAEELNDPIAKAAVEALRSALSSSSSSS
B36: il10ra_site1_normal_mot_HHH_b1_03900_000000129_0001_1_16_H_._HHH_b1_07492_af2_0001_0000500015_0000002_0 (protein)
chain: SSSSSEEEREAYRLIKRIARLLIRGNEEEAEELLRKLEELAKEVNDPALERAVEILEEALSSSSS
B37: il10ra_site1_sap_26_mot_HHH_b2_02736_000000092_0001_22_38_H_._HHH_b1_07250_0001_0000200033_0000002_0_0001 (protein)
chain: SSSSDQDRELVEAAIRLVEQLLEWGDPEAARFALWSAKLLAEEINNPELEKRLEELEEEVNSSSS

The binders below were run against il10ra, Q13651 (assay: yeast display titration).

Apparent Kd, inactive:
B1 no binding seen
B2 no binding seen
B3 no binding seen
B4 no binding seen
B5 no binding seen
B6 no binding seen
B7 no binding seen
B8 no binding seen
B9 no binding seen
B10 no binding seen
B11 no binding seen
B12 no binding seen
B13 no binding seen
B14 no binding seen
B15 no binding seen
B16 no binding seen
B17 no binding seen
B18 no binding seen
B19 no binding seen
B20 no binding seen
B21 no binding seen
B22 no binding seen
B23 no binding seen
B24 no binding seen
B25 no binding seen
B26 no binding seen
B27 > 1120 nM
B28 no binding seen
B29 no binding seen
B30 no binding seen
B31 no binding seen
B32 no binding seen
B33 no binding seen
B34 no binding seen
B35 no binding seen
B36 no binding seen
B37 no binding seen

Not a retest: an excerpt of the list.
Apparent Kd, inactive:
B32 no binding seen
B33 no binding seen

From PMC10163288
